Binding data for 1 molecule are collected here from patent EP4293046A1 (Shanghai Jemincare Pharmaceuticals Co., Ltd., dated 2023).

These are yes or no findings as the source states them, for the method shown. Binding calls can cover weak binding; strength is not graded here.

This test has as its target monkey PD-1 (Acro, Catalog Number: PD-1-C5223) (monkey). Briefly: summary of Example 7 (BLI and flow cytometry). For orientation: In flow cytometry, cells or beads pass a laser one at a time.

B1: Ab2005Am08 (antibody, V domains shown)
VH: EVQLVESGGGLVKPGGSLRLSCAASGFTFSNYDMSWVRQAPGKGLEWVSTISGGGRYTYYADSVKGRFTISRDNAKNSLYLQMNSLRAEDTAVYYCVSPYYGMEYWGQGTLVTVSS
VL: DIQLTQSPSFLSASVGDRVTITCKASQDVGTAVAWYQQKPGKAPKLLIYWASTRHTGVPSRFSGSGSGTEFTLTISSLQPEDFATYFCQQYSSYPWTFGGGTKVEIK
notes: also called clone YC215H3 as IgG
Regarding B1, the binding result is listed as “binds”.
